# Laboratory results: PubChem BioAssay AID504467 (National Center for Advancing Translational Sciences (NCATS), 2011)
# Screen size: about 330,000 compounds; about 7,700 (2.3%) were called active. Inconclusive means that the source gave no clear call. Such entries were picked first, then a sample of the others. The call rests on the fitted dose curve; in most records, active means well fitted inhibition curve with a large enough effect; inconclusive means small, poorly fitted or top-dose-only effect, or effect the other way; inactive means flat fitted curve, though single readings scatter. A potency beside an inconclusive call is a rough fit, not a confirmed value.
# Assay: qHTS screen for small molecules that inhibit ELG1-dependent DNA repair in human embryonic kidney (HEK293T) cells expressing luciferase-tagged ELG1; further: nearly all actives have a fitted effect of over 55% in size
# Conditions: HEK293T ELG1-luciferase reporter, luminescence, 16 h, DNA damage induced by 5-fluorouridine; activity change, negative = inhibition: at 46.1 µM (top of the series)
# In short: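 Luminescence from the luciferase reporter, measured 30 min after ONE-Glo reagent at room temperature, was the read-out. Beforehand, 2,000 cells per well were exposed for 16 hr at 37 °C to 5-fluorouridine together with compound or vehicle.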
# On the % scale 0 is the no-effect control and ±100 the full control effect; potency means the concentration at half of the fitted maximal effect.
Structure (SMILES),Potency,"activity change, negative = inhibition"
Cc1ccc(NC(=O)c2cccs2)cc1NC(=O)c1ccc(F)cc1,"inconclusive: 11.2 µM [inhibitor, partial curve, poor fit]",–
Cc1ccc(-n2nc(C)c3c(C)c(CCC(=O)NCCCOC(C)C)c(C)nc32)cc1,–,inactive: -4.55%
CCc1ccc(C(=O)COC(=O)C2=NN(c3ccccc3)C(=O)CC2)cc1,"inconclusive: 29.1 µM [activator, single point]",–
CN(C)S(=O)(=O)c1ccc(C(=O)NCCSc2ccccc2)cc1,"inconclusive: 11.6 µM [activator, partial curve]",–
CCOc1ccc(S(=O)(=O)NCCC(=O)Nc2ccncc2)cc1,–,inactive: -3.71%
O=C(CSc1nncn1-c1ccccc1F)NC1CCCCC1,"inconclusive: 14.6 µM [activator, partial curve, poor fit]",–
O=C1NC(Cc2ccccc2)c2nc3ccc(Cl)cc3c(=O)n2-c2ccccc21 (stereo not drawn),"inconclusive: 20.6 µM [activator, partial curve, poor fit]",–
Cc1cccc(Cn2c(CN3CCN(Cc4ccccc4)CC3)nc3c2c(=O)[nH]c(=O)n3C)c1,"inconclusive: 20.6 µM [inhibitor, single point]",–
CNC(=O)C(=O)Nc1cc2c3c(c1)CCN3C(=O)CC2,"inconclusive: 16.4 µM [activator, partial curve]",–
O=C(NC(=S)NC1CCC(O)CC1)c1ccco1 (stereo not drawn),"inconclusive: 16.4 µM [activator, single point]",–
CC(=O)c1ccc(N2CCN(C(=O)c3cc(-c4ccncc4)nc4ccc(Cl)cc34)CC2)cc1,"inconclusive: 4.11 µM [inhibitor, single point]",–
COc1ccc(Br)cc1/C=N/NC(=O)c1cc(OC)c(OC)c(OC)c1,"inconclusive: 18.4 µM [inhibitor, partial curve, poor fit]",–
CCc1nnc(SCC(=O)Nc2nc(C)c(C(=O)N(C)C)s2)n1CC,–,inactive: 13.1%
Cc1ccc(S(=O)(=O)CCC(=O)Nc2cccc(S(=O)(=O)N3CCCCCC3)c2)cc1,–,inactive: 4.7%
O=c1oc(-c2ccc(F)cc2)nc2ccsc12,"inconclusive: 20.6 µM [activator, partial curve, poor fit]",–
C=CCNC(=S)N1CCN(c2ncc3c(=O)c(C(=O)O)cn(CC)c3n2)CC1,"inconclusive: 10.3 µM [inhibitor, partial curve]",–
COc1cnn(-c2ccc(C)cc2)c(=O)c1Br,"inconclusive: 16.4 µM [activator, partial curve]",–
Cc1sc2ncnc(Sc3ccccc3C(=O)Nc3ccc(C#N)cc3)c2c1C,"inconclusive: 23.1 µM [inhibitor, partial curve, poor fit]",–
O=C1c2ccccc2C(=O)N1CCC#Cc1ccc2cc(CCO)oc(=O)c2c1,–,inactive: -1.58%
COc1cccc(CN(C)CC(=O)Nc2cccc(C(F)(F)F)c2)c1OC,"inconclusive: 20.6 µM [inhibitor, single point]",–
Cc1nn(-c2ccccc2)c(=O)c2ccccc12,"inconclusive: 32.6 µM [activator, partial curve, poor fit]",–
O=Cc1s/c(=N\S(=O)(=O)c2ccccc2)n(CCCCl)c1Cl,"inconclusive: 29.1 µM [inhibitor, single point]",–
COc1ccc(-c2nc(-c3ccccn3)ncc2S(C)(=O)=O)cc1,–,inactive: -9.01%

Structure (SMILES),Potency,"activity change, negative = inhibition"
COCCCNC(=O)/C(C#N)=C/c1c(N2CCN(C)CC2)nc2c(C)cccn2c1=O,–,inactive: 16.4%
O=C(NC(=S)Nc1ccc(N2CCOCC2)cc1)c1cccc(Cl)c1,"inconclusive: 4.61 µM [activator, partial curve, poor fit]",–
CC(=O)Nc1sc(N/N=C\c2cccc(Cl)c2)nc1-c1cccs1,"inconclusive: 11.6 µM [activator, partial curve]",–
Cc1ccc(NC(=O)COC(=O)/C(=C/c2cccs2)c2cccs2)cc1S(=O)(=O)N(C)C,"inconclusive: 23.1 µM [inhibitor, single point]",–
CCc1cc(OCCCSc2nc(C)cc(=O)[nH]2)ccc1Cl,"inconclusive: 7.31 µM [inhibitor, partial curve]",–
CCCc1cc(-c2[nH]ncc2-c2ccc(C(=O)OCC)o2)c(O)cc1O,"inconclusive: 29.1 µM [inhibitor, single point]",–
CCc1ccc(NCc2cc3c(C)nn(-c4ccccc4)c3[nH]c2=O)cc1,"inconclusive: 29.1 µM [inhibitor, partial curve, poor fit]",–
COc1ccc(Nc2cc(Cl)nc(N)n2)cc1,"inconclusive: 23.1 µM [activator, single point]",–
COc1ccc(-c2csc(Cc3nnc(N4CCOCC4)n3-c3ccccc3)n2)cc1,"inconclusive: 25.9 µM [inhibitor, partial curve]",–
CCOC(=O)c1cccc(COC(=O)c2cccc(-c3nnc(-c4ccccc4)o3)c2)c1,"inconclusive: 2.31 µM [activator, partial curve]",–
Cc1cccc(-n2c(C)cc(/C=N/O)c2C)c1,–,inactive: 12.9%
Cn1c(=O)c(C(=O)CSc2nncs2)c(N)n(Cc2ccccc2)c1=O,"inconclusive: 29.1 µM [inhibitor, partial curve, poor fit]",–
O=C(Nc1ccc2ccccc2c1)c1ccc(Cl)cc1,"inconclusive: 0.501 µM [activator, full curve, poor fit]",–
O=C(NNS(=O)(=O)c1ccccc1F)c1cc(-c2ccccc2)n[nH]1,–,inactive: 4.36%
Cc1ccc(C(=O)NNC(=O)c2ccco2)cc1,"inconclusive: 20.6 µM [activator, partial curve]",–
COc1ccc2oc(=O)c(C(=O)N3CCN(C(=O)c4ccco4)CC3)cc2c1,–,inactive: 0.595%
Cc1ccc(Nc2nc(CSc3nnnn3C)cs2)cc1,"inconclusive: 6.51 µM [activator, partial curve]",–
O=c1[nH]c2ccccc2n1C1=CCNCC1,"inconclusive: 20.6 µM [activator, partial curve, poor fit]",–
COc1ccccc1CCc1nnc(CCC(=O)N(C)Cc2cccc3cnccc23)o1,"inconclusive: 3.26 µM [activator, full curve]",–
CC1Cc2ccccc2N1C(=S)NC(=O)c1cccc(Br)c1 (stereo not drawn),–,inactive: 6.31%
C#CC[N+](C)(C)CCCCCCCCCCCC,–,inactive: -25.8%
CCC(=O)Nc1cccc(NC(=O)c2ccc(C)cc2Cl)c1,"inconclusive: 14.6 µM [activator, partial curve]",–
COc1cccc(-c2nc(C(=O)NCCCN3CCOCC3)cc3c2[nH]c2ccccc23)c1,"inconclusive: 10.3 µM [inhibitor, single point]",–

Structure (SMILES),Potency,"activity change, negative = inhibition"
O=c1[nH]c(NC2CCN(S(=O)(=O)c3ccccc3C(F)(F)F)CC2)nc2c1CCCC2,"inconclusive: 29.1 µM [inhibitor, single point]",–
Cc1nc(NCc2ccc3c(c2)OCO3)c2nnn(Cc3ccccc3)c2n1,"inconclusive: 14.1 µM [activator, single point]",–
COc1ccc(-c2c(C)nn(Cc3ccccc3)c2N)cc1,–,inactive: 11.7%
Cc1ccc(C#N)c(SCC(=O)Nc2nccs2)n1,"inconclusive: 2.59 µM [activator, partial curve]",–
COc1ccc(Cc2nc(-c3cccs3)no2)cc1OC,–,inactive: -5.57%
N#CCC(=O)Nn1c(=S)[nH]c2ccccc2c1=O,–,inactive: 23.1%
CC(C)Oc1cccc(-c2cc(C(=O)NC(=S)N(C)c3ccccc3C(=O)O)c3ccccc3n2)c1,"inconclusive: 16.4 µM [activator, single point]",–
CCOc1ccccc1-c1cc(C(=O)N/N=C/c2ccc(O)c(OC)c2)c2ccccc2n1,–,inactive: -10.4%
O=C(CCSc1ccccc1)NC1CCCC1,"inconclusive: 18.4 µM [activator, partial curve, poor fit]",–
COCc1nc(-c2ccc(-c3ccc(OC)cc3)nc2OC)no1,"inconclusive: 20.6 µM [activator, single point]",–
COc1cccc(-n2c(=O)[nH]cc(C(=O)Nc3ccc4c(c3)OCCO4)c2=O)c1,–,inactive: 5.68%
CCOC(=O)C(=CNc1ccc(C)cc1C)C(=O)OCC,–,inactive: 0.61%
CCCCCC(=O)Nc1cccc(C2=NOC3(C2)C[C@@H](C(N)=O)N(C(=O)CC(c2ccccc2)c2ccccc2)C3)c1 (stereo partly drawn),"inconclusive: 29.1 µM [inhibitor, single point]",–
Cc1ccc(S(=O)(=O)N2CCN(C(=O)COC(=O)c3oc4ccccc4c3C)CC2)cc1,–,inactive: 12.4%
CC(C)CNC(=O)c1coc(=O)c(Br)c1,"inconclusive: 23.1 µM [activator, partial curve, poor fit]",–
CN(C)C(=O)c1nc2ccc(Cl)cn2c1CN1CCCC(OCc2cccnc2)C1 (stereo not drawn),–,inactive: 1.48%
COc1cc(/C(C)=N/NC(=O)CSc2nncn2C)ccc1OCc1ccccc1Cl,"inconclusive: 18.4 µM [activator, partial curve, poor fit]",–
Cc1nc2ccc(S(=O)(=O)NCC(=O)N(C)Cc3ccco3)cc2s1,"inconclusive: 32.6 µM [activator, partial curve, poor fit]",–
O=C(N/N=C(/CC(=O)c1cccs1)C(F)(F)F)c1ccc(O)cc1,–,inactive: 1.85%
Cc1cccc(C)c1NC(=O)c1cccc2c1C(=O)N(C1CCCCC1)C2,–,inactive: 21.3%
C[C@H](CO)N1C[C@H](C)[C@@H](CN(C)C(=O)NC2CCCCC2)Oc2ccc(NC(=O)CCC(F)(F)F)cc2C1=O,"inconclusive: 29.1 µM [activator, single point]",–
O=C(Nc1cccc(S(=O)(=O)N2CCOCC2)c1)C1CCCCN1S(=O)(=O)c1ccccc1 (stereo not drawn),"inconclusive: 5.17 µM [inhibitor, single point]",–

# Single values from the results shown.
# Value of Cc1nc2ccc(S(=O)(=O)NCC(=O)N(C)Cc3ccco3)cc2s1 under Potency: inconclusive: 32.6 µM [activator, partial curve, poor fit]
# Value of Cc1ccc(C#N)c(SCC(=O)Nc2nccs2)n1 under Potency: inconclusive: 2.59 µM [activator, partial curve]
